The list does not hold the whole screen: it gathers tests that were run many times, whatever their T/C, doses with no T/C, and many T/C values between a quarter and a half above the control. Other doses and runs of a compound stand elsewhere. T/C gives the treated animals as a percentage of the vehicle group. Some doses have a count of surviving animals in place of a T/C: the source holds a T/C of zero for them, seemingly a mark for toxic or unscored doses. Some survivor counts are full or nearly so, which does not show that the dose was tolerated: survival well below the control is almost never listed, so the zero probably covers shortened survival too. Survivors were counted at the toxicity check, usually on the fifth day, unless a day is given; later deaths do not show. Schedule codes are those of the source, taken here to give the interval after Q, in days (D) or hours (H), and the number of doses after X. Some entries were tested several times; the values are given in rising order. For survival time, the PubChem record calls one and a half times the control and up active, and a quarter to a half above the control has no call in these data; cut-offs in other NCI protocols can differ. Marks such as (2×) give the number of equal values in this list. Some T/C values carry the count of animals alive at the toxicity check (mostly the fifth day); without a count, all were alive then.
Tested on: CD2F1 mice, L1210 leukemia ip, survival T/C
Assay: NCI In Vivo Anticancer Drug Screen. Data for tumor model L1210 Leukemia (intraperitoneal) in CD2F1 (CDF1) mice
Conditions: higher T/C = longer survival
In short: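 Transplantable tumor in mice; compound-treated vs vehicle-treated groups. Read-out = treated/control ratio of the measured endpoint.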

[1] = T/C endpoint: mean survival time, dose: 4.0 mg/kg/injection, schedule: Q01DX001 (ip), vehicle: saline
[2] = T/C endpoint: mean survival time, dose: 100.0 mg/kg/injection, schedule: Q04DX002 (ip), vehicle: saline with Tween-80
[3] = T/C endpoint: mean survival time, dose: 400.0 mg/kg/injection, schedule: Q04DX002 (ip), vehicle: saline with Tween-80
[4] = T/C endpoint: mean survival time, dose: 400.0 mg/kg/injection, schedule: Q04DX003 (ip), vehicle: saline with Tween-80
[5] = T/C endpoint: mean survival time, dose: 200.0 mg/kg/injection, schedule: Q04DX003 (ip), vehicle: saline with Tween-80

In the case of `CC[C@]1(O)C[C@H]2CN(CCc3c([nH]c4ccccc34)[C@@](C(=O)OC)(c3cc4c(cc3OC)N(C=O)[C@H]3[C@@](O)(C(=O)OC)[C@H](OC(C)=O)[C@]5(CC)C=CCN6CC[C@]43[C@@H]65)C2)C1`, the T/C (T/C endpoint: mean survival time, dose: 0.03 mg/kg/injection, schedule: Q01DX005 (ip), vehicle: saline, evaluated on day 5) is reported as 103, 114, 120 % of control, the T/C (T/C endpoint: mean survival time, dose: 0.03 mg/kg/injection, schedule: Q01DX005 (ip), vehicle: saline, evaluated on day 30) is reported as 114 and 119 % of control and the T/C (T/C endpoint: mean survival time, dose: 0.03 mg/kg/injection, schedule: Q01DX005 (ip), vehicle: saline, evaluated on day 60) is reported as 103 % of control. For the same molecule, the T/C (T/C endpoint: mean survival time, dose: 0.06 mg/kg/injection, schedule: Q01DX005 (ip), vehicle: saline, evaluated on day 5) was 116, 117, 122 % of control, the T/C (T/C endpoint: mean survival time, dose: 0.06 mg/kg/injection, schedule: Q01DX005 (ip), vehicle: saline, evaluated on day 30) was 116 and 120 % of control and the T/C (T/C endpoint: mean survival time, dose: 0.06 mg/kg/injection, schedule: Q01DX005 (ip), vehicle: saline, evaluated on day 60) was 117 % of control. The T/C (T/C endpoint: mean survival time, dose: 0.12 mg/kg/injection, schedule: Q01DX005 (ip), vehicle: saline, evaluated on day 5) was 122 and 124 % of control, the T/C (T/C endpoint: mean survival time, dose: 0.12 mg/kg/injection, schedule: Q01DX005 (ip), vehicle: saline, evaluated on day 30) was 120 and 124 % of control and the T/C (T/C endpoint: mean survival time, dose: 0.13 mg/kg/injection, schedule: Q01DX005 (ip), vehicle: saline, evaluated on day 5) was 126 % of control. For the same molecule, the T/C (T/C endpoint: mean survival time, dose: 0.13 mg/kg/injection, schedule: Q01DX005 (ip), vehicle: saline, evaluated on day 60) was 126 % of control, the T/C (T/C endpoint: mean survival time, dose: 0.13 mg/kg/injection, schedule: Q04DX003 (ip), vehicle: saline) was 104, 105 (2×), 112, 114, 115, 117 % of control (2×) and the T/C (T/C endpoint: mean survival time, dose: 0.22 mg/kg/injection, schedule: Q01DX009 (ip), vehicle: water) was 139 % of control. For the same molecule, the T/C (T/C endpoint: mean survival time, dose: 0.25 mg/kg/injection, schedule: Q01DX005 (ip), vehicle: saline, evaluated on day 5) was 117, 136, 142 % of control, the T/C (T/C endpoint: mean survival time, dose: 0.25 mg/kg/injection, schedule: Q01DX005 (ip), vehicle: saline, evaluated on day 30) was 136 and 140 % of control and the T/C (T/C endpoint: mean survival time, dose: 0.25 mg/kg/injection, schedule: Q01DX005 (ip), vehicle: saline, evaluated on day 60) was 110 % of control [9 of 10 alive]. For the same molecule, the T/C (T/C endpoint: mean survival time, dose: 0.25 mg/kg/injection, schedule: Q01DX009 (ip), vehicle: saline) was 128 and 134 % of control, the T/C (T/C endpoint: mean survival time, dose: 0.25 mg/kg/injection, schedule: Q04DX003 (ip), vehicle: saline) was 105, 107, 110, 112, 115, 117, 118, 119 % of control and the T/C (T/C endpoint: mean survival time, dose: 0.4 mg/kg/injection, schedule: Q04DX003 (ip), vehicle: saline) was 131 % of control. For the same molecule, the T/C (T/C endpoint: mean survival time, dose: 0.5 mg/kg/injection, schedule: Q01DX001 (ip), vehicle: saline) was 103, 106 (3×), 111, 114 (2×), 122 % of control, the T/C (T/C endpoint: mean survival time, dose: 0.5 mg/kg/injection, schedule: Q01DX009 (ip), vehicle: saline) was 128 % of control and the T/C (T/C endpoint: mean survival time, dose: 0.5 mg/kg/injection, schedule: Q04DX003 (ip), vehicle: saline, evaluated on day 5) was 121 and 127 % of control. For the same molecule, the T/C (T/C endpoint: mean survival time, dose: 0.5 mg/kg/injection, schedule: Q04DX003 (ip), vehicle: saline, evaluated on day 30) was 114, 115, 115 [5 of 6 alive], 118 (2×), 121, 122, 128 % of control, the survivor count (T/C endpoint: mean survival time, dose: 0.6 mg/kg/injection, schedule: Q01DX009 (ip), vehicle: water) was 2 of 6 and the T/C (T/C endpoint: mean survival time, dose: 0.65 mg/kg/injection, schedule: Q04DX003 (ip), vehicle: water) was 130 % of control. The T/C (T/C endpoint: mean survival time, dose: 0.8 mg/kg/injection, schedule: Q04DX003 (ip), vehicle: saline) was 144 % of control, the T/C (T/C endpoint: mean survival time, dose: 1.0 mg/kg/injection, schedule: Q01DX001 (ip), vehicle: saline) was 105 [5 of 6 alive], 109, 112, 114 (2×), 117, 122, 126 % of control and the T/C (T/C endpoint: mean survival time, dose: 1.0 mg/kg/injection, schedule: Q04DX003 (ip), vehicle: saline, evaluated on day 5) was 127 and 141 % of control. The T/C (T/C endpoint: mean survival time, dose: 1.0 mg/kg/injection, schedule: Q04DX003 (ip), vehicle: saline, evaluated on day 30) was 118, 119, 122, 124 [5 of 6 alive], 132, 134, 137 [5 of 6 alive], 142 % of control, the T/C (T/C endpoint: mean survival time, dose: 1.0 mg/kg/injection, schedule: Q04DX004 (ip), vehicle: saline) was 129 % of control (2×) and the T/C (T/C endpoint: mean survival time, dose: 1.08 mg/kg/injection, schedule: Q04DX003 (ip), vehicle: water) was 140 % of control. The T/C (T/C endpoint: mean survival time, dose: 1.3 mg/kg/injection, schedule: Q04DX003 (ip), vehicle: saline) was 132 and 144 % of control, the T/C (T/C endpoint: mean survival time, dose: 1.5 mg/kg/injection, schedule: Q04DX004 (ip), vehicle: saline) was 133 and 141 % of control and the T/C (T/C endpoint: mean survival time, dose: 2.0 mg/kg/injection, schedule: Q01DX001 (ip), vehicle: saline) was 109, 111, 114 (2×), 117 (2×), 122, 129 % of control. The T/C (T/C endpoint: mean survival time, dose: 2.0 mg/kg/injection, schedule: Q04DX003 (ip), vehicle: saline, evaluated on day 5) was 151 % of control, the T/C (T/C endpoint: mean survival time, dose: 2.0 mg/kg/injection, schedule: Q04DX003 (ip), vehicle: saline, evaluated on day 30) was 91, 97, 102 [5 of 6 alive], 119, 130 % of control and the T/C (T/C endpoint: mean survival time, dose: 2.0 mg/kg/injection, schedule: Q04DX003 (ip), vehicle: saline, evaluated on day 45) was 140 and 150 % of control. The survivor count (T/C endpoint: mean survival time, dose: 2.0 mg/kg/injection, schedule: Q04DX003 (ip), vehicle: saline) was 3 of 6, 4 of 6, 6 of 6, the survivor count (T/C endpoint: mean survival time, dose: 3.2 mg/kg/injection, schedule: Q04DX003 (ip), vehicle: saline) was 4 of 6 and the survivor count (T/C endpoint: mean survival time, dose: 3.2 mg/kg/injection, schedule: Q04DX003 (ip), vehicle: water) was 5 of 6 and 6 of 6. For the same molecule, the T/C [1] was 103, 105 [5 of 6 alive], 112, 118, 121 [5 of 6 alive], 126, 140 % of control, the survivor count [1] was 3 of 6 and the survivor count (T/C endpoint: mean survival time, dose: 8.0 mg/kg/injection, schedule: Q01DX001 (ip), vehicle: saline) was 0 of 6, 2 of 6, 3 of 6, 4 of 6, 5 of 6. For the same molecule, the survivor count (T/C endpoint: mean survival time, dose: 16.0 mg/kg/injection, schedule: Q01DX001 (ip), vehicle: saline) was 0 of 6, the T/C (T/C endpoint: mean survival time, dose: 600.0 micrograms/kg/injection, schedule: Q01DX009 (ip), vehicle: water) was 125 % of control and the T/C (T/C endpoint: median survival time, dose: 250.0 micrograms/kg/injection, schedule: Q01DX009 (ip), vehicle: water) was 132 % of control. The T/C (T/C endpoint: median survival time, dose: 500.0 micrograms/kg/injection, schedule: Q01DX009 (ip), vehicle: water) was 134 % of control.

For `C[S+](C)c1ccccc1`, the survivor count [2] was 0 of 3, the survivor count (T/C endpoint: mean survival time, dose: 200.0 mg/kg/injection, schedule: Q04DX002 (ip), vehicle: saline with Tween-80) was 0 of 3 and the survivor count [3] was 0 of 3.

In the case of `c1ccc2nc3c(cc2c1)CCC3`, the survivor count (T/C endpoint: mean survival time, dose: 400.0 mg/kg/injection, schedule: Q04DX003 (ip), vehicle: saline + alcohol) is reported as 1 of 3.

With `CCOC(=O)c1ccc(NC(=O)CCOc2ccccc2)cc1` the survivor count [2] was 3 of 3, the survivor count [3] was 6 of 6 and the survivor count [4] was 6 of 6.

With `CCCCCCCCCC[N+]1(C)CCC[N+](C)(CCCCCCCCCC)CC1` (configuration not stated) the survivor count (T/C endpoint: mean survival time, dose: 50.0 mg/kg/injection, schedule: Q01DX001 (ip), vehicle: saline with Tween-80) was 1 of 6.

With `CCN(CC)Cc1cc(Nc2c3ccc(Cl)cc3nc3ccc(OC)nc23)ccc1O` the survivor count (T/C endpoint: mean survival time, dose: 100.0 mg/kg/injection, schedule: Q01DX001 (ip), vehicle: saline with Tween-80) was 3 of 3.

With `CCCCCCC(=C/c1ccccc1)/C=N/NC(=O)c1ccc[n+](C)c1` the survivor count [5] was 0 of 3 and the survivor count [4] was 0 of 3.

In the case of `CC12CCCCC1=CC(=O)CC2` (configuration not stated), the survivor count (T/C endpoint: mean survival time, dose: 400.0 mg/kg/injection, schedule: Q01DX009 (ip), vehicle: saline with Tween-80) is reported as 3 of 6.

With `CCOc1ccc(C(C)c2cc3c(cc2OC)OCO3)cc1` (configuration not stated) the survivor count (T/C endpoint: median survival time, dose: 400.0 mg/kg/injection, schedule: Q01DX009 (ip), vehicle: distilled water + Tween-80) was 3 of 6 and the survivor count (T/C endpoint: median survival time, dose: 400.0 mg/kg/injection, schedule: Q01DX009 (ip), vehicle: saline with Tween-80) was 4 of 6.

For `O=C1c2ccccc2C(=O)N1CC(O)COc1ccccc1[N+](=O)[O-]` (configuration not stated), the survivor count [3] was 3 of 3.

In the case of `NC(=S)N/N=C/c1c(O)ccc2ccccc12`, the survivor count (T/C endpoint: mean survival time, dose: 100.0 mg/kg/injection, schedule: Q04DX003 (ip), vehicle: saline with Tween-80) is reported as 3 of 6, the survivor count [5] is reported as 0 of 6 and the survivor count [4] is reported as 2 of 6. The survivor count (T/C endpoint: mean survival time, dose: 800.0 mg/kg/injection, schedule: Q04DX003 (ip), vehicle: saline with Tween-80) was 0 of 6.

For `C[NH-].C[NH-].[Cl][Pt+2][Cl]`, the survivor count (T/C endpoint: mean survival time, dose: 20.0 mg/kg/injection, schedule: Q04DX003 (ip), vehicle: water) was 10 of 10 and the survivor count (T/C endpoint: mean survival time, dose: 40.0 mg/kg/injection, schedule: Q04DX003 (ip), vehicle: water) was 7 of 10.

— PubChem BioAssay AID256 (DTP/NCI, 2004)
